The results in this text go back to the supplement of paper PMC12819154, “High-throughput peptide-centric local stability assay extends protein–ligand identification to membrane proteins, tissues and bacteria” (Nature Structural & Molecular Biology, 2025).

The chains behind the UniProt entries cited, without tags or fusion partners. Where a name states a change or a piece, a line headed by the entry shows the natural chain unless it says otherwise.
UniProt Q8K4Q0, whole entry: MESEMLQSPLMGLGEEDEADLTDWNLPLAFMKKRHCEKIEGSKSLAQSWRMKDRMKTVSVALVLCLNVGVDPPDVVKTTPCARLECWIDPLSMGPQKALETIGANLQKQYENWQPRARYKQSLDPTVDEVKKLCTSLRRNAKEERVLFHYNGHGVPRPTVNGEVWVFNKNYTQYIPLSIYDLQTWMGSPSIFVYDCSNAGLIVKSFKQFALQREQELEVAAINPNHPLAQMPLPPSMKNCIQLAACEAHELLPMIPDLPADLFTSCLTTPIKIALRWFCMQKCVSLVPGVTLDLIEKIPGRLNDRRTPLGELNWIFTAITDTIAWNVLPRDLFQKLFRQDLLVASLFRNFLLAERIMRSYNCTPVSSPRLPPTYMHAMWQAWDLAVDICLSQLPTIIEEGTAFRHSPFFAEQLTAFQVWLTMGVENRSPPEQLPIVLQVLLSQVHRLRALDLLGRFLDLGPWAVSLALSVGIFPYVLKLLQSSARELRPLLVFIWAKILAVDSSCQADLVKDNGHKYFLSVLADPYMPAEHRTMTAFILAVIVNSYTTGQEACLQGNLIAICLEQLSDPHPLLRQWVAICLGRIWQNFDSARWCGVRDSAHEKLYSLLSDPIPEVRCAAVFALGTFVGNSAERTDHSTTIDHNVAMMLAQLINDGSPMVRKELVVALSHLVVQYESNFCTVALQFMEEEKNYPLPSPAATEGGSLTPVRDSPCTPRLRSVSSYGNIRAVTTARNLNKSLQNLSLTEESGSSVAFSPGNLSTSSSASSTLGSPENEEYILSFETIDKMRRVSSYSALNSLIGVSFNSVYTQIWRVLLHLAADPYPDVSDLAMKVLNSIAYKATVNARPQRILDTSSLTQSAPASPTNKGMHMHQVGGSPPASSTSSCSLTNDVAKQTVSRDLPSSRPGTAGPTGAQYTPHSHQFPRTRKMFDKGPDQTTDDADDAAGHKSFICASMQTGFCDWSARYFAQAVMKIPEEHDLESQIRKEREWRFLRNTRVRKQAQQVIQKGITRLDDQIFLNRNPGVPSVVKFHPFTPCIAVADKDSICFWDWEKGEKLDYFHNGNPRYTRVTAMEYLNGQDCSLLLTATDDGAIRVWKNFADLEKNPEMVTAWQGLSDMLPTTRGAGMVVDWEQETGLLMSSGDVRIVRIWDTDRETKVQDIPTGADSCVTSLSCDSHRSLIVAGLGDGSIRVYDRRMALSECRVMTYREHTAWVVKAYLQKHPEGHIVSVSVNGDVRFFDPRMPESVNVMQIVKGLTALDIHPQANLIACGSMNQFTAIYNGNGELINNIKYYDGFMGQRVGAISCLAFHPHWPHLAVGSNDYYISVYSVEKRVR
UniProt Q8K1J6: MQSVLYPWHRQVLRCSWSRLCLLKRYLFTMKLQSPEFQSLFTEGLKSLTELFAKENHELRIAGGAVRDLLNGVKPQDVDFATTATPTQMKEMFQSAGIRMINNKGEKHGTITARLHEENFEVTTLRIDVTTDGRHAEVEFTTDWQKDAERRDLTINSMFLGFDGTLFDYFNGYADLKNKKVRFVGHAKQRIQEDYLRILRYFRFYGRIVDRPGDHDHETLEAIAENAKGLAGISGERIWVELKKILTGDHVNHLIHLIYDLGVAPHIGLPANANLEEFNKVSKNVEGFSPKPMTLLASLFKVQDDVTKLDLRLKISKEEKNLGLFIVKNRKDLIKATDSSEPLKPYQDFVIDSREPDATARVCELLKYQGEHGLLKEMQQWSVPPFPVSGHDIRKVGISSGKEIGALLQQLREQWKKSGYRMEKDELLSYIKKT
UniProt Q8K212, whole entry: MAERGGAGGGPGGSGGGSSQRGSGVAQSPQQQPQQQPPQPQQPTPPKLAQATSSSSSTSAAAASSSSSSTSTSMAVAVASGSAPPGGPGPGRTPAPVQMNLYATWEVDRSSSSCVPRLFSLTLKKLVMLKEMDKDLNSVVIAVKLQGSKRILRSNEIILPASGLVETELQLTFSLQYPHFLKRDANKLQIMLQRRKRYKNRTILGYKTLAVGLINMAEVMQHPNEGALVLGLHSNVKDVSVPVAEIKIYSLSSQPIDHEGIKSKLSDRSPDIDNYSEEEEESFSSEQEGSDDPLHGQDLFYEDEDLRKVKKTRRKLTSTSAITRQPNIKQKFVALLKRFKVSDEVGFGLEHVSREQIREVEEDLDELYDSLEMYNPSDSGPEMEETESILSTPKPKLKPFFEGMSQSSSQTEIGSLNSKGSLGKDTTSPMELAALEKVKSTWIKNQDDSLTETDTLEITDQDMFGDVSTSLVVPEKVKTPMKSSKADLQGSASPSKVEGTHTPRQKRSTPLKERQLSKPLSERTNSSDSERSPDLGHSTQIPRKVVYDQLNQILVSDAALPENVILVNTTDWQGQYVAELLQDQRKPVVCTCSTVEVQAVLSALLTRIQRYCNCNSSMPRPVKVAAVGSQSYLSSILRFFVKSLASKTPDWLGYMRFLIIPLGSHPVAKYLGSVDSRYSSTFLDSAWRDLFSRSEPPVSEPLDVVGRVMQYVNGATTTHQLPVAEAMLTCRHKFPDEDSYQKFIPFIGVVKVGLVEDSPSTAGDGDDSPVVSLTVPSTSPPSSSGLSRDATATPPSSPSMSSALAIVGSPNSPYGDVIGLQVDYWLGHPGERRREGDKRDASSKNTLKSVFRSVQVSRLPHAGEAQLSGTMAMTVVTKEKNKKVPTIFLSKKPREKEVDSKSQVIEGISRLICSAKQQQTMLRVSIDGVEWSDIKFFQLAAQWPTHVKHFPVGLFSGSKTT
UniProt Q8K274: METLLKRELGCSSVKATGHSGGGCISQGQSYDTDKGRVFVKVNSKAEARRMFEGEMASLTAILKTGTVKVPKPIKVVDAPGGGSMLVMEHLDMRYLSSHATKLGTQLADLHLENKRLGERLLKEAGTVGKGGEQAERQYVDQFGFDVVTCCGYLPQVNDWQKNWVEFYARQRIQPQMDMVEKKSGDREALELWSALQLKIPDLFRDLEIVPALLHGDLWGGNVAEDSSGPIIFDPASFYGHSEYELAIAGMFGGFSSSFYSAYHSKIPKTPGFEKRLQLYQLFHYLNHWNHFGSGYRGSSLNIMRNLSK
UniProt Q8R1F0: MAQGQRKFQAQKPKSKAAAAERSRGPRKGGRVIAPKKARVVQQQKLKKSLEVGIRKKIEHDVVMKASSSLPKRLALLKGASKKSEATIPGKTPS
UniProt Q8R2K7: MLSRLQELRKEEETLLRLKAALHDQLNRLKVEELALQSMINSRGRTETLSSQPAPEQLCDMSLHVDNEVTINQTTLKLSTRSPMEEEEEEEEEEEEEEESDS

Some of the results follow. Most values lie at the level of the controls, where differences are scatter.

Compound in this assay: CN[C@@H]1C[C@H]2O[C@@](C)([C@@H]1OC)n1c3ccccc3c3c4c(c5c6ccccc6n2c5c31)C(=O)NC4 [staurosporine]
As to the kind of experiment: log2 fold change of tryptic peptide abundance, ligand vs vehicle (limited proteolysis) (log2 ratio); higher = more trypsin-susceptible (destabilized). The following applies: ligand concentration: 20 uM; sample: mouse liver crude lysate; replicate design: treated separately.
As for “UniProt Q8K4Q0 (peptide sequence: YYDGFMGQR, peptide start residue: 1292)”, the log2 fold change amounted to 0.169.

For the target “UniProt Q8K1J6 (peptide sequence: MEKDELLSYIK, peptide start residue: 422)”, the log2 fold change is -0.111.

As to “UniProt Q8K212 (peptide sequence: FLIIPLGSHPVAK, peptide start residue: 657)”, the log2 fold change was 0.315.

Regarding “UniProt Q8K274 (peptide sequence: GSSLNIMR, peptide start residue: 298)”, the log2 fold change is -0.175.

For the target “UniProt Q8R1F0 (peptide sequence: SLEVGIRK, peptide start residue: 49)”, the log2 fold change worked out at 0.126.

With “UniProt Q8R2K7 (peptide sequence: AALHDQLNR, peptide start residue: 20)”, the log2 fold change is -0.12.
